± gives the standard deviation. Only a part is listed here, and it is no random draw. Many of these values have a large error.
system: MIWI (PIWIL1) piRISC loaded with Kctd7 piRNA (30 nt); assay: pre-steady-state target cleavage rate (min^-1); MIWI and MILI are mouse PIWI proteins and EfPiwi is from a freshwater sponge; tags in brackets are library labels; higher = faster piRNA-guided slicing of the target; conditions: guide: Kctd7 piRNA 5'p-UGUUAAUCUCUCAGAGAAGGUGACAGUGAU; auxiliary factor: 500 nM mouse GTSF1
Method in brief: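 Sequencing of uncleaved targets, normalised to depth and to weakly complementary targets, was the readout of this Cleave-'n-Seq assay. A transcribed, DNA-blocked target RNA library (0.1 nM) was mixed with 1 nM active affinity-purified piRISC carrying one synthetic guide, with or without 500 nM GTSF1 partner protein, in HEPES–potassium acetate buffer at 33 °C for 0–8 or 0–960 min. Three trials were pooled, k3 was capped at 0.0001 min^-1, and a burst-and-steady-state fit gave the pre-steady-state cleavage rate.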

Sequence	pre-steady-state target cleavage rate
UAGUGACACACCUUCUCUGAGUAGAUUAACA	0.0017 ± 0.006
UAGUGACAGUGCUUCUCUGAGAGAUUUAACA	0.00371 ± 0.0041
UAGACUGUCACCUUCUCUGAGUCUUUAACA	0.00131 ± 0.0054
AUCACUGUCACCGUUCUCUGAGAGAUUAACA	0.774 ± 0.052
UAGUGAGUCACCUUGAGUGAGAGAUUUUGA	0.000849 ± 0.012
UAGUGACAGACGAUCUCUGAGAGAUUAACA	0.000754 ± 0.0077
UAGUGACAGUGCUUCUCUGUCAGAUUAACA	0.000325 ± 0.014
UAGUGUCAGACCUUCUCUGAGAGAUAUUGA	0.000416 ± 0.018
UAGUGAGUCAGGAUCUCUGAGAGAUUUUGA	0.000558 ± 0.013
UAGUCUGUCACCUUCUCUGAGACUUUAUGA	0.00143 ± 0.0048
UAGUGACAGUGCUUCUCUGAGCGAUUAACA	0.00288 ± 0.0031
AUCACUGUCACCUUCUCUGAGAGAUUAACC [g2:g30:cont:t1C]	0.387 ± 0.032
UAGUGACACACCUUCUCUGAGAGUAAAUGA	0.00181 ± 0.0062
UUCACUGUCACCUUCUCACUGAGAUAUUGA	0.00236 ± 0.0051
UAGACUGUCACCUUCUCUGAGACAUUUACA	0.00137 ± 0.0045
UAGUGACAGACCUUCUCAGAGAGAAUAACA	0.00157 ± 0.0071
UAGUGACAGUGGAAGAGACACUGAUUAACA	0.000425 ± 0.014
UAGUGACAGACCAUCUCAGAGAGAUUAACA	0.00164 ± 0.0065
UAGUGACAGUCCUUCUCUGAGAGAUAUAGA	0.000608 ± 0.008
UUCACUGCUCACCUUCUCUGAGAGAUUAACA	0.669 ± 0.044
UAGUGACAGUGAUUCUCUGAGAGAUUAACA	0.00102 ± 0.0047
UAGUGACAGUGCUUCUCUGAGAGUAUAACA	0.000117 ± 0.024
UAGUGACAGUGCUUCUCGGAGAGAUUAACA	0.000763 ± 0.008
UAGACUGUCACCUUCUCUGACAGAAUAACA	0.00201 ± 0.0041

Sequence	pre-steady-state target cleavage rate
UAGUGACACACCUAGUCUGAGAGAUUAAGA	0.000202 ± 0.033
UAGUGAGUCACCUUCUCUGACUCAUAUUGA	0.00105 ± 0.0086
UACACUGUCACGAACUCUGAGAGAUUAAGA	0.00157 ± 0.0067
UAGUGACAGUGCUUCUCUAGAGAUUAACA	0.000922 ± 0.0059
UAGUGACACACCUUGAGUGAGAGAUUUUGA	0.00122 ± 0.0096
UAGUGAGUCACCAAGUCUGAGAGAUUUUGA	0.000323 ± 0.027
UAGUGACAGUCCUUCUCUGAGAGAUAAUGA	0.000426 ± 0.011
UAGUGACAGUCCUUCUCUGAGUGUUUAACA	0.000488 ± 0.0085
UACACUGUCACCUUCUCACUGAGAUAUUGA	0.00182 ± 0.0084
UAGACUGUCACCUUCUGAGAGAGAUUUUGA	0.000938 ± 0.0072
UAGUGACAGUGCUUCUGUGAGAGAUAAACA	0.00266 ± 0.0034
UAGUCUGUCAGGUUCUCUGAGAGAUUUUGA	0.000502 ± 0.0095
UAGUGACACACCUUCUCUGUGAGAUAUUGA	0.0018 ± 0.0067
UAGUGACUCACCUUCUCACUCUCUAAUUGA [g14:g23:cont:t1A]	0.000513 ± 0.011
UAGUGACUCACGAACUCUGAGAGAUUAACA	0.000159 ± 0.024
AUCACUGUCACCUUCACUGAGAGAUUUUGA	0.339 ± 0.082
UAGUGACAGUCGUUCACUGAGAGAUUAACA	0.000293 ± 0.033
UAGUCUGUCUGCUUCUCUGAGAGAUUUUGA	0.000182 ± 0.032
UAGUGACAGACGUUCUCUGAGAGAAUAACA	0.00143 ± 0.0057
AUCUCUGUCACCUUCUCUGAGAGAUUAACA	0.713 ± 0.032
UUCACUGUCACCUUCUCUGACUCAUAUUGA	0.0012 ± 0.0051
UAGUGACUCACCUUCAGUGAGAGAUAUUGA	0.000713 ± 0.013
UAGUGACAGACGUUCUCUGAGACAUUAACA	0.000811 ± 0.0077
UAGUGACAGUGCUUCUCAGAGAGAUUAACA	0.00164 ± 0.0049

As a working copy, some entries already given.
Sequence	pre-steady-state target cleavage rate
UAGUCUGUCUGCUUCUCUGAGAGAUUUUGA	0.000182 ± 0.032
UAGUGACAGACGUUCUCUGAGAGAAUAACA	0.00143 ± 0.0057

Quoted at random: 2 entries already listed
Sequence	pre-steady-state target cleavage rate
UUCACUGCUCACCUUCUCUGAGAGAUUAACA	0.669 ± 0.044
UAGUCUGUCAGGUUCUCUGAGAGAUUUUGA	0.000502 ± 0.0095

Next results:

Sequence	pre-steady-state target cleavage rate
UAGUGACUCUCCUUCUCUGAGAGAUAUUGA	0.00117 ± 0.0048
UAGUGAGUCACCUUCUCUGACUCAUUUUGA	0.00135 ± 0.0088
UAGUGACACACCUUCUGCUGAGAGAUUAACA	0.00071 ± 0.021
UAGACAGUCACCUUCUCUGAGAGAUUAACA	0.656 ± 0.033
UAGUGACAGUGCUUCUCUGUGAGAUUAUCA	0.00204 ± 0.0033
UAGUGACAGUGGAAGACUGAGAGAUUCAACA	0.000173 ± 0.022
AUCACUAGUCACCUUCUCUGAGAGAUUAACA	0.724 ± 0.04
UAGUGACAGUGCUUCUUGAGAGAUUAACA	0.000752 ± 0.012
UAGUGACAGUGGAACUCUGACUGAUUAACA	0.00011 ± 0.029
UAGUGACAGACCUUCUCUCAGAGAAUAACA	0.00127 ± 0.0087
UAGUGACAGACCUUCAGAGAGAGAUUAAGA	0.000258 ± 0.052
UACAGUGUCACCUUCUCUGAGAGAUUAACA	0.663 ± 0.034
UAGUGACAGUGCUUCACUGAGAGAUAAACA	0.000838 ± 0.0091
UAGUGUGUCACCUUCUCUGAGAGAUUAUCA	0.219 ± 0.026
UAGUGACAGACCUUCUCUGAGAGUUUAUCA	0.00293 ± 0.0048
UAGUGACAGUGGAAGUCUGAGUCAUUAACA	0.000187 ± 0.029
UAGUGACAGUGGAACUCUGAGACUUUAACA	0.00154 ± 0.011
AUCACUGUCACCUUCUGACUCUCUAAUUGA [g15:g30:cont:t1A]	0.000505 ± 0.0078
UAGACUGUCACCUUCUCUGAGACUAAUUGA	0.000117 ± 0.017
UAGACAGUCACCUUCUCUGAGAGAUUAUCA	0.252 ± 0.029
UAGUGACAGUCCUUCUCUGGAGAGAUUAACA	0.000122 ± 0.017
UAGUGACAGUGGAUCUCUGAGAAAUUAACA	< 0.0001
UAGUGACAGUGGAACUCUGAAAGAUUAACA	0.000869 ± 0.015

From the supplement of paper PMC10338343
